Measured values: patent publication US20220267445A1, “Methods and Compositions for Determining Susceptibility to Treatment with Checkpoint Inhibitors” (Novocure GmbH, priority 2021, published 2022)
At least one compound was matched to its structure with a doubt left.

Tested on: GBM cell lines
Assay: LDH release assay
Format: cell-based, human

In the case of `Cn1nnc2c(C(N)=O)ncn2c1=O` [temozolomide], the “LDH release above TTFields-treated cells” value (TMZ 150 μg/ml in combination with TTFields, 24 hours at 200 kHz) is reported as “did not increase” and the “LDH release above non-treated cells” value (TMZ alone, 150 μg/ml) is reported as “did not increase”.
